Data source: PubChem BioAssay AID652259 (Drosophila RNAi Screening Center, 2013)
Test: 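Knock-downs that push a Wingless-driven reporter up or down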 (primary screen). Cells: Drosophila clone 8 imaginal disc epithelial cells. Reagents: long dsRNA against Drosophila genes. Treatment: pathway stimulated by co-transfected Wingless expression plasmid. Detection: 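Firefly luciferase from a tcf-site Wingless reporter, measured alongside co-transfected Renilla luciferase that tracks transfection; pathway stimulated by a Wingless plasmid; the firefly-to-Renilla ratio is not deposited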. Direction: firefly reporter light: higher = more Wg reporter light, before normalisation; Renilla control light: higher = more transfected or surviving cells. Call rule: 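Strong candidates differ from their plate mean by at least two out of four per-plate statistical tests; weak candidates meet just one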. Calls: active = candidate regulator (raises or lowers reporter); inactive = not a candidate.
In all, the deposit lists about 22,000 reagents; this is an unselected part of those that have a named target and a result. In the full data, 233 (1.1%) got an active call. 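Light values are raw, unnormalised plate reads; the ratio scores behind the reporter calls were not deposited.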 Unmarked entries are inactive. Names joined by + are all predicted targets of the reagent. Not given: the amount of reagent, the time to read-out, the dose of the treatment.

qkr58E-2 [DRSC04710] → firefly reporter light, replicate 1 = 1936; firefly reporter light, replicate 2 = 5383; Renilla control light, replicate 1 = 380; Renilla control light, replicate 2 = 2809
Cpr65Az [DRSC09882] → firefly reporter light, replicate 1 = 1896; firefly reporter light, replicate 2 = 12344; Renilla control light, replicate 1 = 1638; Renilla control light, replicate 2 = 6321
Cpr65Az [DRSC22057] → firefly reporter light, replicate 1 = 6.94e5; firefly reporter light, replicate 2 = 6.58e5; Renilla control light, replicate 1 = 2.57e5; Renilla control light, replicate 2 = 2.41e5
Hus1-like [DRSC12353] → firefly reporter light, replicate 1 = 19397; Renilla control light, replicate 1 = 5885
hwt [DRSC19386] → firefly reporter light, replicate 1 = 2022; Renilla control light, replicate 1 = 832
hwt [DRSC19695] → firefly reporter light, replicate 1 = 17931; Renilla control light, replicate 1 = 7760
CG13197 [DRSC06322] → firefly reporter light, replicate 1 = 12310; Renilla control light, replicate 1 = 3733
pes [DRSC03033] → firefly reporter light, replicate 1 = 1699; firefly reporter light, replicate 2 = 5654; Renilla control light, replicate 1 = 720; Renilla control light, replicate 2 = 2725
CG42560 + CG42559 [DRSC21873] → firefly reporter light, replicate 1 = 6.24e5; firefly reporter light, replicate 2 = 5.38e5; Renilla control light, replicate 1 = 1.77e5; Renilla control light, replicate 2 = 1.94e5
mRpL50 [DRSC11015] → firefly reporter light, replicate 1 = 12161; firefly reporter light, replicate 2 = 6.95e5; Renilla control light, replicate 1 = 4167; Renilla control light, replicate 2 = 3.62e5
Pyroxd1 [DRSC02098] → firefly reporter light, replicate 1 = 2772; firefly reporter light, replicate 2 = 6226; Renilla control light, replicate 1 = 848; Renilla control light, replicate 2 = 2229

3 of these entries in another layout.
{"gene": "qkr58E-2", "amplicon": "DRSC04710", "firefly reporter light, replicate 1": 1936, "firefly reporter light, replicate 2": 5383, "Renilla control light, replicate 1": 380, "Renilla control light, replicate 2": 2809}
{"gene": "Cpr65Az", "amplicon": "DRSC09882", "firefly reporter light, replicate 1": 1896, "firefly reporter light, replicate 2": 12344, "Renilla control light, replicate 1": 1638, "Renilla control light, replicate 2": 6321}
{"gene": "Cpr65Az", "amplicon": "DRSC22057", "firefly reporter light, replicate 1": 6.94e5, "firefly reporter light, replicate 2": 6.58e5, "Renilla control light, replicate 1": 2.57e5, "Renilla control light, replicate 2": 2.41e5}

Additional reagents follow:
CG30460 [DRSC06559] → firefly reporter light, replicate 1 = 6690; Renilla control light, replicate 1 = 2921
CG30460 [DRSC06560] → reporter change call, replicate 1 = Wg reporter activity raised; firefly reporter light, replicate 1 = 7126; Renilla control light, replicate 1 = 518
Porin2 [DRSC02584] → firefly reporter light, replicate 1 = 3597; firefly reporter light, replicate 2 = 8936; Renilla control light, replicate 1 = 1415; Renilla control light, replicate 2 = 4977
CG1677 [DRSC18116] → firefly reporter light, replicate 1 = 27767; Renilla control light, replicate 1 = 10780
Fadd [DRSC14122] → firefly reporter light, replicate 1 = 31755; Renilla control light, replicate 1 = 6344
Nipped-B [DRSC07815] → firefly reporter light, replicate 1 = 4929; Renilla control light, replicate 1 = 2068
CG31705 [DRSC01991] → firefly reporter light, replicate 1 = 3296; Renilla control light, replicate 1 = 2049
Calr [DRSC16614] → firefly reporter light, replicate 1 = 6762; Renilla control light, replicate 1 = 2017
CG31802 [DRSC02459] → firefly reporter light, replicate 1 = 3179; firefly reporter light, replicate 2 = 10049; Renilla control light, replicate 1 = 979; Renilla control light, replicate 2 = 3680
Epp [DRSC14607] → firefly reporter light, replicate 1 = 3376; firefly reporter light, replicate 2 = 9014; Renilla control light, replicate 1 = 1056; Renilla control light, replicate 2 = 3088
CG15728 [DRSC19694] → firefly reporter light, replicate 1 = 29825; Renilla control light, replicate 1 = 15461
CG15728 [DRSC22868] → firefly reporter light, replicate 1 = 5.00e5; firefly reporter light, replicate 2 = 7.26e5; Renilla control light, replicate 1 = 2.13e5; Renilla control light, replicate 2 = 3.21e5
Prp6 [DRSC10724] → firefly reporter light, replicate 1 = 7620; Renilla control light, replicate 1 = 3376
Prp6 [DRSC21773] → firefly reporter light, replicate 1 = 3.35e5; firefly reporter light, replicate 2 = 3.51e5; Renilla control light, replicate 1 = 1.16e5; Renilla control light, replicate 2 = 1.09e5
